Results on 19 targets are retold here after the supplement of paper PMC12819154, “High-throughput peptide-centric local stability assay extends protein–ligand identification to membrane proteins, tissues and bacteria” (Nature Structural & Molecular Biology, 2025).

Sequences of proteins named here, by UniProt entry; tags and fusion partners are left off. A change or cut given only in a name is not applied to a line headed by its entry.
UniProt O75533, whole entry: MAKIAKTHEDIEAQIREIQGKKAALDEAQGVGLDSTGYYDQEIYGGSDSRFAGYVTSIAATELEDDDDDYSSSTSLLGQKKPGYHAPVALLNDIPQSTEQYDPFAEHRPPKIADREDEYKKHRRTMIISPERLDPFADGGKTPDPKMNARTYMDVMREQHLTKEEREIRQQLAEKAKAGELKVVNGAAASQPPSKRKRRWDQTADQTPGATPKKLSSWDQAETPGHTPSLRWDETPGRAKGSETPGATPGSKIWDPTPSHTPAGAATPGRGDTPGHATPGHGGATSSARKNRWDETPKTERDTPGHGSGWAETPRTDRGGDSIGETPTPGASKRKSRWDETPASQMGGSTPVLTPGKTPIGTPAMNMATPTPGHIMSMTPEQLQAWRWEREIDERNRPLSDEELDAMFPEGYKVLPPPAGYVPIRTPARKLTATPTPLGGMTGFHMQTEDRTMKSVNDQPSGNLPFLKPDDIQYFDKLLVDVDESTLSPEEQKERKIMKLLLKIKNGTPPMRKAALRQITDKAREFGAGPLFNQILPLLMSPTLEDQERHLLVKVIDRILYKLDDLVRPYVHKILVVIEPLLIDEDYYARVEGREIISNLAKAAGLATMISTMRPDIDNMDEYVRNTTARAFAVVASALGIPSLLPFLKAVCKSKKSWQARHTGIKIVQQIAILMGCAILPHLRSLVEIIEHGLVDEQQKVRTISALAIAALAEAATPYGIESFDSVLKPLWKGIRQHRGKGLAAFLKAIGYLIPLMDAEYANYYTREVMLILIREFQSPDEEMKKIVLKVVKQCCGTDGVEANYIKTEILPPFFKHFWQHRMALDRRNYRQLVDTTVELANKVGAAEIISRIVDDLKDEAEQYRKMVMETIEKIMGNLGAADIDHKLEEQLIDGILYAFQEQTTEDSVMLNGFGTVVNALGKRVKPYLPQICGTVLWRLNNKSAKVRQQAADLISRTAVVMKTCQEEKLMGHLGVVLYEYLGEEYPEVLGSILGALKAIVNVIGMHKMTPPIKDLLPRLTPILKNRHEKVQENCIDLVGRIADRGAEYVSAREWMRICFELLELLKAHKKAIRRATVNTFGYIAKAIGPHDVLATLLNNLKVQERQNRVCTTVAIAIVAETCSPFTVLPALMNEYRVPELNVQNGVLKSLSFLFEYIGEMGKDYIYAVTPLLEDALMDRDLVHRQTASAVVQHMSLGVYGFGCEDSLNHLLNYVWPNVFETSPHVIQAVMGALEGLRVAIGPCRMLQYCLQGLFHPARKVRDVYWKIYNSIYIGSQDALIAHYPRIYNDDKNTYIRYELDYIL
UniProt O94782: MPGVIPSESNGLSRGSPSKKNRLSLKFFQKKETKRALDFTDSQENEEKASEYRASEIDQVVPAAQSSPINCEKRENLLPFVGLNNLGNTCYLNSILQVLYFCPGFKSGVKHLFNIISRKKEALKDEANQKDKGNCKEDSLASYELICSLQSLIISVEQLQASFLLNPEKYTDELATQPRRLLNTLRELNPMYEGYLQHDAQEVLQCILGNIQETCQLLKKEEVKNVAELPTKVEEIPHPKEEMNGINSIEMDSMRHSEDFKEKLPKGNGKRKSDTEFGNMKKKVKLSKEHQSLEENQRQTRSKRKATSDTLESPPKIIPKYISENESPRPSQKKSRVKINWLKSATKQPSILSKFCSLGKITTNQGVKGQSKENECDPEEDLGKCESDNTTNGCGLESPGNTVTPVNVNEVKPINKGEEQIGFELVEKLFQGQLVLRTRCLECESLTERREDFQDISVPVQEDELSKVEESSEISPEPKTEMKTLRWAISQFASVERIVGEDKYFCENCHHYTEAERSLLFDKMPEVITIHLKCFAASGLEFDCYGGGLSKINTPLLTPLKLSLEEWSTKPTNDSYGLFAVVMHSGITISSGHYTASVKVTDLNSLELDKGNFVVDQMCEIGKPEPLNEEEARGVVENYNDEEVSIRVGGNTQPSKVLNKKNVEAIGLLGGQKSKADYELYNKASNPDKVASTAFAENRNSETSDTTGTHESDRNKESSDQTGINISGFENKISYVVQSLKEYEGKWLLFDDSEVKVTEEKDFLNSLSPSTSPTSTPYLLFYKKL
UniProt O75570: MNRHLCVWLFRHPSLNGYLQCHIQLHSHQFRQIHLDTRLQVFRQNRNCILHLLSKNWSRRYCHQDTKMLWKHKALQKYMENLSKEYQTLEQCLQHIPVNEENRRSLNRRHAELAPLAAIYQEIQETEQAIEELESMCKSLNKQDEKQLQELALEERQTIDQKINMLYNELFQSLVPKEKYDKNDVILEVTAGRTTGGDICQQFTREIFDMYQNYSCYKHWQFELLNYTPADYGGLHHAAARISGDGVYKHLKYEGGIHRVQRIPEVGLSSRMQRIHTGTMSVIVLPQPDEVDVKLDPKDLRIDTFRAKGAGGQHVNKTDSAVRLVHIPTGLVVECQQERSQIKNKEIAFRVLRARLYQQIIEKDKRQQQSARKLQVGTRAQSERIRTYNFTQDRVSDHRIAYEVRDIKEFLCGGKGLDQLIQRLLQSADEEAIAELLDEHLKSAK
UniProt O95747, whole entry, looked up: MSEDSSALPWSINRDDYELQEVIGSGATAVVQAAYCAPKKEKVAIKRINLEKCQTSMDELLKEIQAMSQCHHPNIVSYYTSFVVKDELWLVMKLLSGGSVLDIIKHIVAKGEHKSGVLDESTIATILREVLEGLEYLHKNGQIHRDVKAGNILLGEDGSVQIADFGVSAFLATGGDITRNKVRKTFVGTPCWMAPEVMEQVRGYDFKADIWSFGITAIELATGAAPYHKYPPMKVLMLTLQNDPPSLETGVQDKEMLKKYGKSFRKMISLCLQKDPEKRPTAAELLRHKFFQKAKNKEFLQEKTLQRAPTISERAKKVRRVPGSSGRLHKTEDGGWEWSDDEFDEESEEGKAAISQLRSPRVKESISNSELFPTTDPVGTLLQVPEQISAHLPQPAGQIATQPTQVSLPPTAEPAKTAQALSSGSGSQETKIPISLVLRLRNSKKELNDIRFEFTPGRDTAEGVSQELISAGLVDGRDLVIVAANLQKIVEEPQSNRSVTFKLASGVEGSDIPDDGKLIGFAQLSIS
UniProt O95363: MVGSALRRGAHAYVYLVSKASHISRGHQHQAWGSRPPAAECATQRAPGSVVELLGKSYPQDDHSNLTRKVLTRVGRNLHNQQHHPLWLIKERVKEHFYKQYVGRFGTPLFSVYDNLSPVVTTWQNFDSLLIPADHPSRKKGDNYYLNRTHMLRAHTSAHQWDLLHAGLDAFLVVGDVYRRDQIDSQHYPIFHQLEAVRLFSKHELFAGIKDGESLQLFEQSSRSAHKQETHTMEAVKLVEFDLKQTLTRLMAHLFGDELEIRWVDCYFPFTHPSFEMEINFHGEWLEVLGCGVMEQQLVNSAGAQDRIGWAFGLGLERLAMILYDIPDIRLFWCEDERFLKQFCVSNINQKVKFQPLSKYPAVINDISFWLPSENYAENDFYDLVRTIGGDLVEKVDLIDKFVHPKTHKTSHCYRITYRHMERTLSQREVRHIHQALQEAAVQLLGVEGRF
UniProt O95935: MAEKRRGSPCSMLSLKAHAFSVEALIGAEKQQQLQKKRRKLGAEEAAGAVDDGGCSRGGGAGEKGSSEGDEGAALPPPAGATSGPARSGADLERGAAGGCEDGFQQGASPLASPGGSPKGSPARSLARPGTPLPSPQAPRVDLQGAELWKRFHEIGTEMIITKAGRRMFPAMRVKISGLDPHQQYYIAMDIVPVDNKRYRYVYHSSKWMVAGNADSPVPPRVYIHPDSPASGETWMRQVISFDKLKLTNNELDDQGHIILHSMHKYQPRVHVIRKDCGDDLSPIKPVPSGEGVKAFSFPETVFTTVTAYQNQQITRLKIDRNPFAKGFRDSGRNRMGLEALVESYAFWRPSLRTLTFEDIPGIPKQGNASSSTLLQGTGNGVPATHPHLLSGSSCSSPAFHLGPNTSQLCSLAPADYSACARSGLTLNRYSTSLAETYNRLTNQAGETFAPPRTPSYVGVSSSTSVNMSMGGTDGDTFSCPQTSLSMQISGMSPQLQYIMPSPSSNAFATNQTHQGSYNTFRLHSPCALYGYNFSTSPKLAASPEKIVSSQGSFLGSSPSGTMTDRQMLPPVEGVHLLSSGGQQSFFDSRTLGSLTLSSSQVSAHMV
UniProt O95716: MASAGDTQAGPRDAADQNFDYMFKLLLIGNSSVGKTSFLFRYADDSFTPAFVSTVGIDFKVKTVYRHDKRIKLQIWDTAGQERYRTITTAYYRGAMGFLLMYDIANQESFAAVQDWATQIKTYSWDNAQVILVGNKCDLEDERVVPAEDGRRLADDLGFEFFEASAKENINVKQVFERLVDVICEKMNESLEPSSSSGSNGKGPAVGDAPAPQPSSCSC
UniProt O95625: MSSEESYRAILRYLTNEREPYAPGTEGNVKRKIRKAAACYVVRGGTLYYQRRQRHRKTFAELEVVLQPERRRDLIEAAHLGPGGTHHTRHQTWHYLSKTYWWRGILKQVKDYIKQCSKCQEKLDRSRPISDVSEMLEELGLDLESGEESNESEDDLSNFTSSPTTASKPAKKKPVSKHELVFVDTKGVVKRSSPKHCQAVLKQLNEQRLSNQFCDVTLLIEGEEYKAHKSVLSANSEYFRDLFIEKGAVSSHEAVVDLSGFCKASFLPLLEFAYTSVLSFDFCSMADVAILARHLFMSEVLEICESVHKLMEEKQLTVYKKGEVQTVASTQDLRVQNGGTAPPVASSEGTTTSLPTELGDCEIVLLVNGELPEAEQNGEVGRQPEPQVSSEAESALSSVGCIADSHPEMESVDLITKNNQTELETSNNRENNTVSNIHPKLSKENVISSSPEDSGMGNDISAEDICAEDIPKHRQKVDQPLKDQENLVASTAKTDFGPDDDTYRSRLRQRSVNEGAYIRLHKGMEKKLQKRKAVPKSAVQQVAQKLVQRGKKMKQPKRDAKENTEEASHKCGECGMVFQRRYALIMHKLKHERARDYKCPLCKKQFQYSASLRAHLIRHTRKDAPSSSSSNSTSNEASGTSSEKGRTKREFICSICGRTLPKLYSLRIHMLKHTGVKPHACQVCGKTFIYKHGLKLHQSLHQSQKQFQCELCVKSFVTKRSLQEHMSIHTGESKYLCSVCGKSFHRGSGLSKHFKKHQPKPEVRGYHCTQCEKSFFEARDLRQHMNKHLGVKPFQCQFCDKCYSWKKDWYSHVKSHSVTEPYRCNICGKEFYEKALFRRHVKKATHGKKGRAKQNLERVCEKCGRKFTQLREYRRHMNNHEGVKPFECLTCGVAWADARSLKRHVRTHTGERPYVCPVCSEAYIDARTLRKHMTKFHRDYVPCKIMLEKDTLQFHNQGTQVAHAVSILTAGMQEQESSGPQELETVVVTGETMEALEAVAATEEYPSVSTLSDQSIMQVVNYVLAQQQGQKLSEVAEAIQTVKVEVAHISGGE
UniProt O75529: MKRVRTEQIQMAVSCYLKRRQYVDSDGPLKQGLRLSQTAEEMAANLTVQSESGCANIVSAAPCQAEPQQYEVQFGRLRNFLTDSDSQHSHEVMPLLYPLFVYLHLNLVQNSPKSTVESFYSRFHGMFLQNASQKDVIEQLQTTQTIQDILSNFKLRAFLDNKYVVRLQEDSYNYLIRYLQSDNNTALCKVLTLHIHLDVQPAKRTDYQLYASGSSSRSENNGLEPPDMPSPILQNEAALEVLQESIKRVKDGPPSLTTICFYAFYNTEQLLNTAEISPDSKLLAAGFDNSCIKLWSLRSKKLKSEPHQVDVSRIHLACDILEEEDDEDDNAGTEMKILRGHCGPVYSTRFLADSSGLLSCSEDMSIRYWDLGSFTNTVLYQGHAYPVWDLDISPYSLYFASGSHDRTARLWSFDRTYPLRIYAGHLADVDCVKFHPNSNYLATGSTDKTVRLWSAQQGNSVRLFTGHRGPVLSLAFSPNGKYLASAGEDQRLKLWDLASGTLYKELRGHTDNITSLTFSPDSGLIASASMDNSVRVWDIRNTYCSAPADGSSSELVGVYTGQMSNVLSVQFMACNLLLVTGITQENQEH
UniProt O75934: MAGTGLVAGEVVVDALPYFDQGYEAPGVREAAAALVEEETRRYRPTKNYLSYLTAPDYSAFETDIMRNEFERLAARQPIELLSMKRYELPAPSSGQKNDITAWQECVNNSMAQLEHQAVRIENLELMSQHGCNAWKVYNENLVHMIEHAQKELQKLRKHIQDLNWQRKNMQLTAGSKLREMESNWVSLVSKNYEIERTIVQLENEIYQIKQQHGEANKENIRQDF
UniProt O75608: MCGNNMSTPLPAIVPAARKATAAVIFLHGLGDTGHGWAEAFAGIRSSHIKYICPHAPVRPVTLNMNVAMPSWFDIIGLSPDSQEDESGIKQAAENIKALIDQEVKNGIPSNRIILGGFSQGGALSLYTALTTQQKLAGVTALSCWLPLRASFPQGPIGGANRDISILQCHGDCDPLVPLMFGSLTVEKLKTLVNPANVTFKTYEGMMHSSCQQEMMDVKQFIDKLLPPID
UniProt O75817: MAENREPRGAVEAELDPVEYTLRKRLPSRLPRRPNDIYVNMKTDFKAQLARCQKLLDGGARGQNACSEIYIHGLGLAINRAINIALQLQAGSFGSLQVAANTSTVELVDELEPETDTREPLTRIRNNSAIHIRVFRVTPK

The list shows a part of the results. Most values lie at the level of the controls, where differences are scatter.

Compound in this assay: Cc1nc(Nc2ncc(C(=O)Nc3c(C)cccc3Cl)s2)cc(N2CCN(CCO)CC2)n1 [dasatinib]
Description: log2 fold change of tryptic peptide abundance, ligand vs vehicle (limited proteolysis) (log2 ratio); higher = more trypsin-susceptible (destabilized). Conditions: ligand concentration: 5 uM; sample: K562 cleared lysate.

On to “SF3B1 (peptide sequence: IADREDEYKK, peptide start residue: 112) (UniProt O75533)”, for which the log2 fold change was 0.538.
The value for “USP1 (peptide sequence: VASTAFAENR, peptide start residue: 690) (UniProt O94782)” was 0.535; that for “ATG12 (peptide sequence: AVGDTPIMK, peptide start residue: 61) (UniProt O94817)” was -0.137.
With “MTRF1 (peptide sequence: MQRIHTGTMSVIVLPQPDEVDVK, peptide start residue: 272) (UniProt O75570)”, the log2 fold change turned out to be 0.784.
Regarding “PIAS1 (peptide sequence: QLSSTVLLQR, peptide start residue: 287) (UniProt O75925)”, the log2 fold change was -0.522.
The value for “UniProt O95747 (peptide sequence: IVEEPQSNR, peptide start residue: 489)” was -0.0761; that for “FARS2 (peptide sequence: LFWCEDER, peptide start residue: 331) (UniProt O95363)” was 0.386; that for “UniProt O95935 (peptide sequence: YVYHSSK, peptide start residue: 201)” was -0.273.
Next, “RAB3D (peptide sequence: TITTAYYR, peptide start residue: 72) (UniProt O95716)”: -0.128; “SNRNP200 (peptide sequence: DLLPYGFAIHHAGMTR, peptide start residue: 776) (UniProt O75643)”: -0.33; “ZBTB11 (peptide sequence: KTFAELEVVLQPER, peptide start residue: 57) (UniProt O95625)”: 0.418.
The value for “PMPCB (peptide sequence: QMLCYNR, peptide start residue: 425) (UniProt O75439)” was 0.226.
Turning to “TAF5L (peptide sequence: VRTEQIQMAVSCYLK, peptide start residue: 4) (UniProt O75529)”, the log2 fold change is -0.186.
Next, “UniProt O75934 (peptide sequence: VYNENLVHMIEHAQK, peptide start residue: 137)”: -0.105; “PRPF6 (peptide sequence: LLLKSVRETNPHHPPAWIASAR, peptide start residue: 296) (UniProt O94906)”: 0.633.
Next, “LYPLA1 (peptide sequence: TLVNPANVTFK, peptide start residue: 191) (UniProt O75608)”: -0.119; “CDK2AP2 (peptide sequence: ALVRECLAETER, peptide start residue: 111) (UniProt O75956)”: -0.158; “POP7 (peptide sequence: AENREPR, peptide start residue: 2) (UniProt O75817)”: -0.0565.
In the case of “CAVIN2 (peptide sequence: RLENNHAQLLR, peptide start residue: 141) (UniProt O95810)”, the log2 fold change turned out to be 0.0863.
